# Assay results taken from the supplement of paper PMC10338343.
# ± gives the standard deviation. Only a part is listed here, and it is no random draw. The uncertainty is large for many entries.
# Tested on: EfPiwi piRISC loaded with piRNA #1 (26 nt)
# Experiment: pre-steady-state target cleavage rate (min^-1); guide: piRNA #1 5'p-UGAGGUAGUAGGUUGUAUAGUAUCCA; MIWI and MILI are mouse PIWI proteins and EfPiwi is from a freshwater sponge; tags in brackets are library labels; higher = faster piRNA-guided slicing of the target
# Settings: auxiliary factor: 500 nM Ephydatia muelleri Gtsf1
# How it was run: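 A transcribed, DNA-blocked target RNA library (0.1 nM) and 1 nM active affinity-purified piRISC bearing one synthetic guide were incubated in HEPES–potassium acetate buffer at 33 °C for 0–8 or 0–960 min, either with or without 500 nM GTSF1 partner protein. Uncleaved targets were sequenced, normalised to depth and to weakly complementary targets, and pooled over three trials, with k3 capped at 0.0001 min^-1. The pre-steady-state cleavage rate was derived with a burst-and-steady-state fit.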
row,Sequence,pre-steady-state target cleavage rate
1,GGAGACCUAACUAUACAACCUACUACGUGA,0.0069 ± 0.0046
2,GGAGACCUAUGAUAUCAACGUAGUACCUCA,0.00022 ± 0.013
3,GGAGACCUAUGUAUACAACCUACUUCCUCA,0.000581 ± 0.0051
4,GGAGACCUAUCUAUACAAGCUACUUCCUCA,0.00291 ± 0.0037
5,GGAGACCAUACUAUACAACCUACUUCCUGA,0.00388 ± 0.0027
6,GGAGACCUAUCUUUACAUCCUACUACCUCA,0.00277 ± 0.0038
7,GGAGACCUAUGUAUACAAACUACUACCUCA,0.00137 ± 0.0045
8,GGAGACGAUACUAUACAAGCUACUACCUGA,0.00333 ± 0.0015
9,GGAGACCUAUGUAUACAUCCUACAACCUCA,0.000266 ± 0.0099
10,GGAGACCUUUCUUUACAACCUACUACCUCA,0.00421 ± 0.0044
11,GGAGACCUAUGUAUACAAGCUACUACCUGA,0.000394 ± 0.0074
12,GGAGACCAUACUAUACAUCCUUCUACCUCA,0.00223 ± 0.003
13,GGAGACCAUAGUAUACAACCUACUUCCUCA,0.00272 ± 0.003
14,GGAGACCUAUGAUAUGUUGCUACAUCCUCA,0.000722 ± 0.0047
15,GGAGACCAUAGUAUACAACCUACUACCUCA,0.022 ± 0.0084
16,GGAGUGGAUACUAGUACAACCUACUACCUCA,0.175 ± 0.056
17,GGAGACCUAUGUAUAGAACCUACUACCUCA,0.00113 ± 0.0039
18,GGAGAGGAUACUAAACAACCUACUACGUCA,0.00195 ± 0.0024
19,GGAGUGGAUACUAUACAACCUACUCCCUCA,0.00426 ± 0.0017
20,GGAGACCUUACAAUACAACCUACUACGUCA,0.00112 ± 0.0048

row,Sequence,pre-steady-state target cleavage rate
1,GGAGACCUAACUAUACAAGCUACUAGCUCA,0.00384 ± 0.0055
2,GGAGUGGAUACUAUACAAUCUACUACCUCA,0.105 ± 0.038
3,GGAGACCUUACUAUACAACGUACUACGUCA,0.00267 ± 0.0018
4,GGAGACCUAUCUAUACAACCUACAUCCUCA,0.00178 ± 0.005
5,GGAGUGGAUACUAUUACAACCUACUACCUCA,0.131 ± 0.047
6,GGAGACCUAUCUAUACAAGCUACUACGUCA,0.00274 ± 0.0026
7,GGAGUGGAUACUAUACUACCUUCUACCUCA,0.00331 ± 0.0022
8,GGAGACCAUAGUAUACAACCUUCUACCUCA,0.00207 ± 0.0035
9,GGAGACCUAUCUAUACAACCUAGUUCCUCA,0.00263 ± 0.0032
10,GGAGACCUAUCUAUACUACCUACUUCCUCA,0.0014 ± 0.0055
11,GGAGACCUAUCUAUACAAGCUUCUACCUCA,0.00135 ± 0.0047
12,GGAGACGAUAACUAUACAACCUACUACCUCA,0.0617 ± 0.023
13,GGAGACCUAUCUAUAUAACCUACUACCUCA,0.00312 ± 0.0033
14,GGAGACCUAACUGAUACAACCUACUACCUCA,0.00745 ± 0.0044
15,GGAGAGGAUACUAUACAACCUACAUCCUCA,0.00358 ± 0.0016
16,GGAGACCUAACUAUAGAACGUACUACCUCA,0.000345 ± 0.0098
17,GGAGACCUUACUUUACAACCAACUACCUCA,0.0015 ± 0.0056
18,GGAGACCUAACUUUAGAACCUACUACCUCA,0.000226 ± 0.013
19,GGAGACCUUACUAUACAACCAACAACCUCA,0.000335 ± 0.0093
20,GGAGACCUAACUAUACAACCUACUAACUCA,0.00332 ± 0.0043

# Reformatted with bars between the fields: entries from further up
row | Sequence | pre-steady-state target cleavage rate
15 | GGAGAGGAUACUAUACAACCUACAUCCUCA | 0.00358 ± 0.0016
16 | GGAGACCUAACUAUAGAACGUACUACCUCA | 0.000345 ± 0.0098
